## Screening data, single-dose tests

The chains behind the UniProt entries cited, without tags or fusion partners. Residues count along the entry.
UniProt P9WNZ1, whole entry: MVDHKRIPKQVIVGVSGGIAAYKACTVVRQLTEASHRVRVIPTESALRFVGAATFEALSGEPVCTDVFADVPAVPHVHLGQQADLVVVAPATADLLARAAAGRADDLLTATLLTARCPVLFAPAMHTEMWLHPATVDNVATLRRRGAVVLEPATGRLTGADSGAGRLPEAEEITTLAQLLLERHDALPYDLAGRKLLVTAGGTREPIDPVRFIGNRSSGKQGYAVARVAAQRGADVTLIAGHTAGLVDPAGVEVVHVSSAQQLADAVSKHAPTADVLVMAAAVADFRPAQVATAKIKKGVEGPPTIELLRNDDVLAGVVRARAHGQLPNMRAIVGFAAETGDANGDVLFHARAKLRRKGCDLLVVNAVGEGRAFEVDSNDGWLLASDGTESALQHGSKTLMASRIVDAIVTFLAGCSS
UniProt P9WFT3, whole entry: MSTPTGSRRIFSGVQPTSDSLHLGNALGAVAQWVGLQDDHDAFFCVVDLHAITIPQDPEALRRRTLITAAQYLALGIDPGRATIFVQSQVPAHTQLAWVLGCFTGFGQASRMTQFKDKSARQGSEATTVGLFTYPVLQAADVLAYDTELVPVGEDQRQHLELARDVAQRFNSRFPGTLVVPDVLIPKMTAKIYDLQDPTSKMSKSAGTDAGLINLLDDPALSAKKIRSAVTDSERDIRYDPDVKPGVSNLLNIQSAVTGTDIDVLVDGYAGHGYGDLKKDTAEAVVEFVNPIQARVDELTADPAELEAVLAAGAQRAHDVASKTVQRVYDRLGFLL
UniProt Q4DA54, 1-478: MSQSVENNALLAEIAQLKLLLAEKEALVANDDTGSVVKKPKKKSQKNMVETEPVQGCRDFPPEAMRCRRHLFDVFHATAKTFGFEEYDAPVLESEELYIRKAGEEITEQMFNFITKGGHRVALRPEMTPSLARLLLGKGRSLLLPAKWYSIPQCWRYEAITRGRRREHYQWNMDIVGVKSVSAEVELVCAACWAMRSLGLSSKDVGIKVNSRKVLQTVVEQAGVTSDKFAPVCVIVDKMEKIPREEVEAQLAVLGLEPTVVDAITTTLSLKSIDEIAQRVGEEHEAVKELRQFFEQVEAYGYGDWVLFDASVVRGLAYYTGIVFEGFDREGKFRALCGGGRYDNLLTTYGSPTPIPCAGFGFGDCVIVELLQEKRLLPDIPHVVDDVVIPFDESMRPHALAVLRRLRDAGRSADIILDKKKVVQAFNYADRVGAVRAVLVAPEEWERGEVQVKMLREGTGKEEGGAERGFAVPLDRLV
UniProt Q8IDJ8, 1-583: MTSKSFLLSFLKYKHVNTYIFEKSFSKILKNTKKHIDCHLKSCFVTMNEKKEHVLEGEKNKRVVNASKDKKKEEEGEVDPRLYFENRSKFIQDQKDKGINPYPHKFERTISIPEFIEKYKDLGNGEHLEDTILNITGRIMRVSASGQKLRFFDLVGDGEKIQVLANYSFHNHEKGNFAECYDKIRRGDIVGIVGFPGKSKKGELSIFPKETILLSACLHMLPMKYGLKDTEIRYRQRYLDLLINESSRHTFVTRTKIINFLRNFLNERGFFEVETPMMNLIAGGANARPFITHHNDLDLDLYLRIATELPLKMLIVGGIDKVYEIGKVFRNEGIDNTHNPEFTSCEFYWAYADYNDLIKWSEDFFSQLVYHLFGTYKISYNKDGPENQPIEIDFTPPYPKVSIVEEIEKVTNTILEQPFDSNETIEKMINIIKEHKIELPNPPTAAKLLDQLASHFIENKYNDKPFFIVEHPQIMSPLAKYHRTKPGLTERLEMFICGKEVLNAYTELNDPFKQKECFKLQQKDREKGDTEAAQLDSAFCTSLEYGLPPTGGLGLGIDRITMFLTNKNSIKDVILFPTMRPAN

The values are deposited in ChEMBL (CHEMBL3988442, “University of Dundee, Small-Polar-MMV Screening Library” (2021)).

Values are the deposited “Percent Effect”, in %. How 0% and 100% were set is not recorded. Most values in the screen are low, and negative values occur. This is an unselected part of the compounds tested. A dash means the value is not listed here; it may have been measured.

CoaBC: 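Enzyme assay of CoaBC with a phosphate dye (Biomol Green) read at 650 nm. Target: Coenzyme A biosynthesis protein CoaBC, Mycobacterium tuberculosis (UniProt P9WNZ1). Tested at 30 µM. Direction is inferred from only a few compounds that gave an IC50; most scored high, so higher reads as stronger inhibition. Most strong results did not repeat in a second test. About 67,000 compounds were tested under these conditions; 0.06% (about 40) showed 50% or more at least once.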
MtTrpRS: 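Tryptophan-tRNA ligase, Mycobacterium tuberculosis (UniProt P9WFT3). Enzyme assay of tryptophanyl-tRNA synthetase; the read-out is not stated. Tested at 10 µM. Direction is not recorded; retested compounds ran higher, which suggests that high means inhibition. Size under these conditions: about 65,000 compounds, about 64 of them at 50% or above in at least one test.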
TcHisRS: 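Enzyme assay of histidyl-tRNA synthetase; the read-out is not stated. Target: Histidine-tRNA ligase, Trypanosoma cruzi CL Brener (UniProt Q4DA54). Compounds at 30 µM. Direction is inferred from retests: higher values go with stronger inhibition. About 69,000 compounds were tested under these conditions; 0.045% (about 31) showed 50% or more at least once.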
PfKRS1: 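Lysine-tRNA ligase, Plasmodium falciparum 3D7 (UniProt Q8IDJ8). Enzyme assay of the cytosolic lysyl-tRNA synthetase in 384-well plates, read by luminescence. Tested at 30 µM. Direction is inferred from only a few compounds that gave an IC50; most scored high, so higher reads as stronger inhibition. About 69,000 compounds were tested under these conditions; 0.071% (about 49) showed 50% or more at least once.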

SMILES | CoaBC | MtTrpRS | TcHisRS | PfKRS1
O=C(NC1CCCCC1)N1CCc2onc(COc3cccnc3)c2C1 | 5 | 0.4691 | 16.67 | 3.448
Cc1cc(C(=O)N2CCC(c3nccn3Cc3ccccn3)CC2)no1 | 1.086 | -0.5072 | 2.513 | 1.36
c1ccc(Cn2ccnc2CNC2CCCOc3ccccc32)cc1 (centres unmarked) | 1.681 | -1.201 | 1.111 | -2.313
Cc1nc(N(C)C)nc2c1COCC21CCN(CC2CC2)C1 (centres unmarked) | -14.29 | 3.002 | 3.743 | 8.442
CCn1cc(C(=O)NCc2cccnc2N(C)Cc2ccccc2)cn1 | -2.317 | -3.576 | 0.6024 | 1.162
COCCN1C[C@@H](C)[C@@]2(COCCN(C(=O)c3ccccn3)C2)C1 | -1.29 | 5.855 | 3.483 | -0.2068
Cc1nccc(CN2CC[C@H](Oc3cccc(F)c3)[C@@](C)(O)C2)n1 | 1.702 | 3.417 | -5.376 | 10.72
Cc1csc(CCNc2ccc(C#N)cc2F)n1 | -0.1248 | -2.346 | 2.041 | 6.403
Cc1cnn(CC2CCCN2CC(=O)N(C)Cc2cnn(C)c2)c1 (centres unmarked) | -0.9615 | -2.734 | 4.926 | 5.393
OCCCNc1nc(O)c2c(n1)-c1ccccc1CC21CCCCC1 | 1.266 | 6.748 | -2.439 | 5.973
O=C(NCC1COC2(CCOCC2)O1)c1csc(-c2cccc(Cl)c2)n1 (centres unmarked) | -3.226 | -1.461 | 3.448 | -0.2358
NCCC(Cc1ccccc1)c1ccco1 (centres unmarked) | 3.452 | -1.573 | -1.042 | -2.463
CCN1C(=O)CC(c2cnn(C)c2)C12CCN(C(=O)c1ccc[nH]1)CC2 (centres unmarked) | 1.025 | -4.026 | 6.897 | 4.674
c1cnn(Cc2ccc(CN3CCC4(CCNCC4)C3)cc2)c1 | 3.981 | 1.232 | -3.518 | -1.557
COCc1nnc(C(=O)N2CCC(N3CCCCC3)CC2)o1 | -0.3367 | 1.29 | 2.02 | -0.7744
O=C(c1cccc(-n2cccn2)c1)N1CCOC(CCO)C1 (centres unmarked) | -1.006 | -3.073 | 6.18 | 4.935
CC(C)(CNC(=O)C1CCCN1S(C)(=O)=O)N1CCOCC1 (centres unmarked) | 6.01 | -0.6849 | 7.595 | 3.397
Cc1nc(NCCSc2nnc(C)s2)c2cccnc2n1 | -0.8696 | -0.289 | 4.813 | 4.171
O=C(CN1CCOCC1)N1CCN(C2CCc3ccc(F)cc32)CC1 (centres unmarked) | 2.244 | -0.7936 | 4.926 | 2.635
Cc1ccc(CN(C)C(=O)CNC(=O)N2CCc3ccccc3C2)o1 | -4.496 | 5.627 | 0.9901 | -1.472
CN(C)c1ncc2c(O)nc(C3CCNCC3)cc2n1 | -5.583 | -4.863 | 2.682 | 1.311
CCCc1nc(CN2CCCCC2Cn2cncn2)cs1 (centres unmarked) | 6.065 | -3.116 | 1.149 | 1.435
O=C(c1ccco1)N1CCCC2(CN(Cc3ccc(F)cc3)CCO2)C1 (centres unmarked) | -2.258 | 0.8364 | 3.483 | 4.416
O=C(Cc1cccs1)NC1(C(=O)NCC2CC2)CCCC1 | 15.32 | -2.785 | 2.521 | 2.189
COCC1CC2(CCN(C(=O)c3cc(C)oc3C)CC2)CN1C(C)C (centres unmarked) | -15.53 | 0.9381 | 4.813 | 8.779
CCn1c(C2CCN(C(=O)c3ccc4sc(C)nc4c3)CC2)n[nH]c1=O | -0.7299 | 1.089 | 4.242 | 1.583
CC1CN(c2ncccc2C(=O)N[C@@H]2CCCc3ccccc32)CCN1 (some centres unmarked) | -1.214 | - | 10.23 | 2.984
CCOc1ncccc1CNC(=O)CN1CCCCCC1=O | 8.049 | 1.655 | -3.922 | -2.02
FC(F)(F)C1CN(Cc2cccc(OCc3ccccn3)c2)CCO1 (centres unmarked) | 0.6075 | 0 | 7.921 | -0.5661
CN(C)c1cc(CNC(=O)c2ccc(=O)[nH]n2)ccn1 | -4.872 | 0.7037 | -1.132 | 4.161
CN1CCCN(c2nccc(-c3c[nH]nc3C3CCCCC3)n2)CC1 | 5.346 | -5.49 | 4.151 | 6.137
Cc1nccn1C1CCCN(C(=O)c2ccc(N(C)C)nn2)C1 (centres unmarked) | 2.937 | -2.568 | 3.468 | 1.317
CN(C)c1ncc(CNC(=O)Nc2ccc(C(F)(F)F)cc2)n1C | 9.457 | -6.052 | 5.056 | 4.393
COCCNC1(c2ccc(Cl)cc2)CCOCC1 | 5 | -2.677 | -2.703 | -1.517
CCN(C)S(=O)(=O)NCC1(c2cccc(Br)c2)CC1 | 0.9804 | -2.346 | 7.143 | 1.702
CCc1cccc(NC(=O)CCC(=O)N(C)Cc2nc(C)c[nH]2)c1 | -3.686 | 1.419 | 3.529 | 4.716
Cc1ccc(C)c(-c2csc(N)c2C#N)c1 | -10.36 | -0.201 | -12.57 | 0.2682
CCOC(=O)C1CCN(C(=O)c2cnn(-c3ccccc3F)c2N)CC1 | -0.7282 | - | 9.091 | 3.098
COc1ccc(Br)cc1CCC(=O)N1CCCC1 | -16.48 | -1.966 | 4.972 | -1.176
NC(=O)c1cnn2c1NCC(CNCCc1ccco1)C2 (centres unmarked) | 1.064 | -3.145 | 1.901 | 0.03638
CS(=O)(=O)Cc1ccc(CNC(=O)c2cccnc2O)cc1 | 6.005 | -1.657 | 4.887 | 1.428
Cc1ccc(N2C[C@@H]3CCCO[C@@H]3[C@H](N3CCCC3)C2)nn1 | - | 8.091 | 5.063 | -3.581
CC(C)Cc1cc(CC2(NCc3ccco3)COC2)no1 | -3.311 | -3.263 | 4.348 | 1.059
CCc1c(C)nc2cc(C3CCN(Cc4ccccc4F)C3)nn2c1O (centres unmarked) | 3.333 | -4.431 | 1.622 | 2.457
O=C(c1ccccc1C(F)(F)F)N1CC[C@@H](N2CCC(O)CC2)[C@H](O)C1 | -4.274 | -9.208 | 1.622 | 2.295
Cn1cc(C(O)CNC(=O)c2ccc(F)cc2Cl)cn1 (centres unmarked) | 0.9685 | -2.72 | 4 | -0.1986
c1ccc([C@@H]2CN(Cc3cccnc3)C[C@H]2c2cc[nH]n2)cc1 | -2.283 | -3.143 | 3.143 | -0.2634
Cc1ccc(C#N)c(N2CCCC(c3nccn3Cc3cscn3)C2)n1 (centres unmarked) | 2.314 | -1.859 | 10.06 | 8.342
O=C1CCN(C(=O)NCC(c2ccccc2)c2ccccc2)CCN1 | 4.018 | -1.135 | 0.5525 | 2.645
CC(=O)Nc1cccc(C(C)NCC2CCS(=O)(=O)CC2)c1 (centres unmarked) | -8.132 | -3.494 | -1.031 | -0.4159
Cc1cc(C(=O)N(C)Cc2cccs2)nc(N2CCOCC2)n1 | -1.386 | 0.3886 | 3.478 | 1.785
O=C(COC1CCCC1)NCc1ccc(O)c(F)c1 | 3.949 | 0.1022 | 10.5 | -1.409
O=C(O)c1ccc(S(=O)(=O)Nc2c(F)cccc2-n2cccn2)cc1 | -4.545 | 2.39 | 13.33 | 9.446
c1cnc(N2CC[C@@H](N3CCOCC3)[C@@H]2Cc2ccncc2)nc1 | 0.813 | -4.766 | 4.902 | 0.799
Cn1cccc1C(=O)N1CCN(Cc2ccncc2)c2ncccc2C1 | 3.68 | -1.574 | 4.865 | 2.895
CC(C)c1noc(CN(Cc2cccnc2)C2CN3CCC2CC3)n1 (centres unmarked) | -0.6165 | -5.255 | -5.263 | -1.098
Cc1nnc(N2CCOC(C)(C(=O)N(C)C)C2)c2ccccc12 (centres unmarked) | 6.796 | -0.6342 | 2.682 | 0.2453
N#Cc1cccc(C(=O)N2CC(c3nc(-c4ccc[nH]c4=O)no3)C2)c1 | 4.44 | 2.204 | 2.062 | 6.892
NC(=O)CN1CCC(NC(=O)N2CCCC2c2ccsc2)CC1 (centres unmarked) | 6.21 | -5.46 | 1.571 | 3.421
NC(=O)c1c(-c2ccc(Cl)cc2)csc1NC(=O)CCC(=O)O | 0.1266 | 4.203 | 1.242 | 3.895

For reference, 4 entries once more:

SMILES,CoaBC,MtTrpRS,TcHisRS,PfKRS1
CC(C)c1noc(CN(Cc2cccnc2)C2CN3CCC2CC3)n1 (centres unmarked),-0.6165,-5.255,-5.263,-1.098
CC(=O)Nc1cccc(C(C)NCC2CCS(=O)(=O)CC2)c1 (centres unmarked),-8.132,-3.494,-1.031,-0.4159
Cc1ccc(C)c(-c2csc(N)c2C#N)c1,-10.36,-0.201,-12.57,0.2682
c1cnn(Cc2ccc(CN3CCC4(CCNCC4)C3)cc2)c1,3.981,1.232,-3.518,-1.557